The values below come from article PMC11477393.

Amino acid sequences for entries named in this document (tags omitted).
UniProt P09405: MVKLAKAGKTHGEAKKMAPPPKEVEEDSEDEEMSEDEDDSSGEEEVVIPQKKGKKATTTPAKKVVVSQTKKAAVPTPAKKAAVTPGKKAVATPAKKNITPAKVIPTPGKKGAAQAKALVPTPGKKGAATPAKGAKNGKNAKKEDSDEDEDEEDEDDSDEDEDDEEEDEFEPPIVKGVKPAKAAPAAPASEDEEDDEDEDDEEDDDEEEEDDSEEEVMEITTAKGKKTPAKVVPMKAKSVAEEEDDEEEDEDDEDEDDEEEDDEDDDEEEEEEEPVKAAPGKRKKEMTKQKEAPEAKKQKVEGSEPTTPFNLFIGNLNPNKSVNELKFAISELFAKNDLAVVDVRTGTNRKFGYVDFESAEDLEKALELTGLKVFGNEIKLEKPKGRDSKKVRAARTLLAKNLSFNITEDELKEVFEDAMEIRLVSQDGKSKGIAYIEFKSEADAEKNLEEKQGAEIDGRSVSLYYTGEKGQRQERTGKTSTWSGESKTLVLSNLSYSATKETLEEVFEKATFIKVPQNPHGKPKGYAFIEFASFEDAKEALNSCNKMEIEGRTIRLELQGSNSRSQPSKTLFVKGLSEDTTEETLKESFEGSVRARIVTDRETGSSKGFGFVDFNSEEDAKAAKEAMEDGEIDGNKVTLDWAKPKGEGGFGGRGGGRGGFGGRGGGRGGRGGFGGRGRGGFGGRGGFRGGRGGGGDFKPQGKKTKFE
UniProt Q6PDM2: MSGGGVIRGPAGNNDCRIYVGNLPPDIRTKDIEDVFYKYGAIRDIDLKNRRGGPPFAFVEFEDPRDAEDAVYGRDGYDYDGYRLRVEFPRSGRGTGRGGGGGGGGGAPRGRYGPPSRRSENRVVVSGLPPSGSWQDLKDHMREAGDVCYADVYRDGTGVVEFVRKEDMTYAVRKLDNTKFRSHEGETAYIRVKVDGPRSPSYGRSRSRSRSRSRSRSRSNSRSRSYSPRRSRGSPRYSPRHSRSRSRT

Results are given in words; binding and its absence hold for the method and conditions named. In cells and extracts the contact can be indirect. These calls come from enrichment with a bait or labelling near it, and not all partners need be listed.

The assay deals with T1, Npac (mouse (endogenous in E14)) (UniProt Q922P9).
T1 sequence: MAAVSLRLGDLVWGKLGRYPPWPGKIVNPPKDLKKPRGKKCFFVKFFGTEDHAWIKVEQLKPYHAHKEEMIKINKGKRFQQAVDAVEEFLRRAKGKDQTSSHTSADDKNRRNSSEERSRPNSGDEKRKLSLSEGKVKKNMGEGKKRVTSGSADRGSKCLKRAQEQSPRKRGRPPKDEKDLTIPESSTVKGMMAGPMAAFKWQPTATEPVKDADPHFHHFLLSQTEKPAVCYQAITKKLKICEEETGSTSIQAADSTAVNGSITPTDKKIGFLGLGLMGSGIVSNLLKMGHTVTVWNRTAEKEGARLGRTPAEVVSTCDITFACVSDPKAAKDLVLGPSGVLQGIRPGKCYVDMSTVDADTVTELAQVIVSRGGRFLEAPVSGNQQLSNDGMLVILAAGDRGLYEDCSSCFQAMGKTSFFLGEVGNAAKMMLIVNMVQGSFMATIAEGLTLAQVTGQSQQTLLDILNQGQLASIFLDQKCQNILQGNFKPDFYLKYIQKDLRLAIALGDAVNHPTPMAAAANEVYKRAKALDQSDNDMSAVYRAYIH
Kind of assay: affinity purification with mass spectrometry; affinity purification with a specific anti-Npac antibody from nuclear extracts of E14 cells, nonspecific IgG as negative control, LC-MS/MS.

For the molecule Nucleolin (from UniProt P09405 1-707), the binding entry is reported as “binds”.
In the case of Refbp2 (from UniProt Q9JJW6 1-218) it was “binds”.
As for “Serine/arginine-rich splicing factor 1 (from UniProt Q6PDM2 1-248)”, the entry is “binds”.

B1: L1td1 (protein, UniProt Q587J6 1-782)
chain: MSGVQSKAARLQKERKEKLSADRERKTATSLCLKHSEVPASMMKQFNALMEMQEVMFAEMRETYKNDIKEMLLKRTAPWVKHLEERIGQQEGDAISERPKPGEKVEELSSGTDEDTENLTVRSKKGKQDKAKPLNSSHVLKSSLERGGEALRGEHGRCGESSSLVDWKNANEKPAREASCQSEENRLKAPKESPPEGGAGATLRLAADFSAATLDVGRQWSQVFRLLKEKELEPELQCSVKLAFKCDGEANVFSDLHSLRQFTSRKPFLRELLKDVFPQNEGGRRNELRERLGKTLGDTKHEARRIASDSLSFLFIKEVEVASPEVKTYKEETLDRKNKGTLKKQEGEEEEISETQGEETSEGETSELGEEEGSESEEEEESSESEEEEESSESAEEIGFISLVVDSESEEEVNRKTASQTKKKETFHGLKELAFSYLVWDSKKKKLVRCQEGGAAAASTQRIGMPCLTLYLTSPSESLGAGSDGPKSHSCTKLSALSQVTPLLTNIEKGRYKVPQTEEPTAKEADLILETEENFKRGVISVIRQMQREVDKIKNIYVSDVLNMKSSLDDLNSLACTIEARVSEQEDAVEGLTKDTMQLAREIVDKERLREREDRFRSSNIRVIGIPEKENRENGAVDIIKEVIEENFAELEDQSLEIVSAHRVPNSVDEHRLTPRHILVKFGSASDKQRVLKASRAKQEITYRGSKIRLTADLSPGTIDARSQWCGIIKILQDEGFQPRILYPAKLAFDFKGKTKIFFDIEEFKKFISDIPYLKDLLNNIH
Take B1: the binding entry is “binds”.

B2: Sfpq (protein, UniProt Q8VIJ6 1-699)
chain: MSRDRFRSRGGGGGGFHRRGGGGGRGGLHDFRSPPPGMGLNQNRGPMGPGPGGPKPPLPPPPPHQQQQQPPPQQPPPQQPPPHQQPPPHQPPHQQPPPPPQESKPVVPQGPGSAPGVSSAPPPAVSAPPANPPTTGAPPGPGPTPTPPPAVPSTAPGPPPPSTPSSGVSTTPPQTGGPPPPPAGGAGPGPKPGPGPGGPKGGKMPGGPKPGGGPGMGAPGGHPKPPHRGGGEPRGGRQHHAPYHQQHHQGPPPGGPGPRTEEKISDSEGFKANLSLLRRPGEKTYTQRCRLFVGNLPADITEDEFKRLFAKYGEPGEVFINKGKGFGFIKLESRALAEIAKAELDDTPMRGRQLRVRFATHAAALSVRNLSPYVSNELLEEAFSQFGPIERAVVIVDDRGRSTGKGIVEFASKPAARKAFERCSEGVFLLTTTPRPVIVEPLEQLDDEDGLPEKLAQKNPMYQKERETPPRFAQHGTFEYEYSQRWKSLDEMEKQQREQVEKNMKDAKDKLESEMEDAYHEHQANLLRQDLMRRQEELRRMEELHSQEMQKRKEMQLRQEEERRRREEEMMIRQREMEEQMRRQREESYSRMGYMDPRERDMRMGGGGTMNMGDPYGSGGQKFPPLGGGGGIGYEANPGVPPATMSGSMMGSDMRTERFGQGGAGPVGGQGPRGMGPGTPAGYGRGREEYEGPNKKPRF
Turning to B2, the binding entry is “binds”.
